Data as given in PubChem BioAssay AID602196 (INSERM, 2012).

- Purpose: 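Genes whose knock-down alters cisplatin killing of lung cancer cells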
- Cells: human A549 lung cancer cells
- Knock-down reagent: siRNA pair against human genes
- Duration: 48 h transfection before cisplatin; time from cisplatin to read-out not stated
- Conditions: cisplatin at a dose killing half of control-siRNA cells; exact dose and duration not given
- Measured: 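Cisplatin cell death as a shift from the 50% death seen with control siRNA; siRNAs toxic or growth-blocking alone scored 0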
- Reading the numbers: two-siRNA summed score (-2 to +2): higher = both siRNAs protect from cisplatin killing; -2 means both sensitise; mean protection from cisplatin (shift in death) and protection from cisplatin (shift in death), siRNA C and protection from cisplatin (shift in death), siRNA D: higher = protection from cisplatin killing
- Active means: 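siRNAs harmful alone (LDH or WST-1) get 0; others get +1 for less and -1 for more cisplatin killing; genes are active when the two siRNAs give the same sign, summing to ±2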
- Calls: active = both siRNAs shift cisplatin killing the same way; inactive = no consistent shift, or siRNA harmful alone
The deposit covers about 23,000 reagents; this is a part drawn at random. Of all reagents, 455 (2%) were called active. 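Active includes both protection and sensitisation; some change values fall well beyond the stated -50 to +50 range.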 No sequences are given here. Not stated in the record: the amount of reagent.

Gene	two-siRNA summed score (-2 to +2)	mean protection from cisplatin (shift in death) (%)	protection from cisplatin (shift in death), siRNA C (%)	protection from cisplatin (shift in death), siRNA D (%)	Call
SLC4A10	0	-18.4	-32.5	-4.3	inactive
TACC2 (transforming acidic coiled-coil containing protein 2)	0	4.6	4.9	4.3	inactive
THEM6 (thioesterase superfamily member 6)	0	5.6	-1.7	12.8	inactive
CDK6 (cyclin dependent kinase 6)	1	10.5	6.8	14.3	inactive
LOC389848	0	40.4	35.1	45.6	inactive
C11orf87 (chromosome 11 open reading frame 87)	0	7.1	7.6	6.6	inactive
LOC387823	0	3.5	-3.8	10.8	inactive
MTMR14 (myotubularin related protein 14)	-1	-1.8	-12.4	8.9	inactive
GBP1 (guanylate binding protein 1)	0	1.6	0.2	3	inactive
C8A (complement C8 alpha chain)	-1	-11.2	-5	-17.5	inactive
AKR1B1 (aldo-keto reductase family 1 member B)	0	0.6	6.2	-5	inactive
LINC01483 (long independently transcribed non-coding RNA 1483)	0	13.2	15.5	10.8	inactive
SMURF2 (SMAD specific E3 ubiquitin protein ligase 2)	0	4	-4.1	12.1	inactive
LOC391347	0	-4.6	-1	-8.3	inactive
FAM50B (family with sequence similarity 50 member B)	0	7.9	2.7	13.2	inactive
ABCC3 (ATP binding cassette subfamily C member 3)	0	-10.9	-28.7	6.9	inactive
CCDC187 (coiled-coil domain containing 187)	0	-1	7.1	-9.1	inactive
WNT6 (Wnt family member 6)	2	14.9	19.5	10.2	active
DAOA (D-amino acid oxidase activator)	0	5.5	26.7	-15.8	inactive
LOC402617	1	12.1	6.2	17.9	inactive
PRSS16 (serine protease 16)	-2	-16.2	-15	-17.5	active
VPS35 (VPS35 retromer complex component)	0	-2.2	-15	10.5	inactive
ALOX15B (arachidonate 15-lipoxygenase type B)	0	-16.6	-28.5	-4.6	inactive
ACSS1 (acyl-CoA synthetase short chain family member 1)	0	-5.1	-14.2	4	inactive

The list goes on (3 carried over from the part before).
Gene	two-siRNA summed score (-2 to +2)	mean protection from cisplatin (shift in death) (%)	protection from cisplatin (shift in death), siRNA C (%)	protection from cisplatin (shift in death), siRNA D (%)	Call
VPS35 (VPS35 retromer complex component)	0	-2.2	-15	10.5	inactive
ALOX15B (arachidonate 15-lipoxygenase type B)	0	-16.6	-28.5	-4.6	inactive
ACSS1 (acyl-CoA synthetase short chain family member 1)	0	-5.1	-14.2	4	inactive
KANK4 (KN motif and ankyrin repeat domains 4)	0	10.7	3.4	18	inactive
TF (transferrin)	0	19.1	22	16.2	inactive
NCAM1 (neural cell adhesion molecule 1)	0	-5.3	-4.9	-5.7	inactive
PIMREG (PICALM interacting mitotic regulator)	-1	-15.6	-13	-18.1	inactive
BPIFB4 (BPI fold containing family B member 4)	-1	-7.2	8.6	-22.9	inactive
CLN6 (CLN6 transmembrane ER protein)	0	14.3	17	11.7	inactive
ASB15 (ankyrin repeat and SOCS box containing 15)	1	13.2	32	-5.6	inactive
AMIGO1 (adhesion molecule with Ig like domain 1)	1	8.3	13	3.6	inactive
BEND5 (BEN domain containing 5)	0	4.1	3	5.1	inactive
ATAD1 (ATPase family AAA domain containing 1)	0	6.1	0.6	11.7	inactive
ZNF598 (zinc finger protein 598, E3 ubiquitin ligase)	0	3.9	13.2	-5.5	inactive
LOC196752	0	12	14.1	9.8	inactive
SMARCA5 (SNF2 related chromatin remodeling ATPase 5)	1	8.3	-0.9	17.4	inactive
LOC389275	0	4.9	1.1	8.7	inactive
LOC400751	0	-1.7	-6.9	3.6	inactive
